Results as given in the supplement of paper PMC12578635.
Some of the results follow. Cut-off read from the data, not from the text of the source: active = 150% or more and inactive = the rest. Many values rest on one well or one pass, so single values are uncertain.

The molecules below were run on Staphylococcus aureus JE2-lux inside RAW 264.7 macrophages (assay: intracellular bacterial bioluminescence relative to DMSO vehicle; higher = higher intracellular bacterial metabolic activity). Details: 10 µM; treatment time 4 h; gentamicin 50 µg/ml.

Intracellular bacterial bioluminescence, inactive:
CCOC(=O)C1CCN(c2cc3c(cc2NC(=O)c2cccc(C)c2)n(C)c(=O)n3C)CC1 127%
COC(=O)c1cc(OC)c(OC)cc1NC(=O)c1cc2ccccc2oc1=O 131%
CCOc1ccc(NC(=O)CSC2=C(C#N)C(c3cccs3)C3=C(CC(C)(C)CC3=O)N2)cc1 (stereo not drawn) 18.6%
COCCNC(=O)c1c(N)n(/N=C/c2ccncc2)c2nc3ccccc3nc12 81.1%
O=C1CC(Nc2ccc(N3CCOCC3)cc2)C(=O)N1 (stereo not drawn) 113%
O=C(CC1Sc2ccccc2NC1=O)Nc1ccccc1F (stereo not drawn) 104%
CCOC(=O)c1ccccc1NC(=O)CSc1nnc(C2CCCCC2)n1-n1cccc1 54.1%
CC(=O)C1=C(C)Nc2ncnn2C1c1ccc(C(C)C)cc1 (stereo not drawn) 99%
COc1ccc(Cn2c(C)nc3cc(Cl)c(NC(=O)c4ccncc4)cc3c2=O)cc1 110%
O=C(Nc1nc2ccc(F)cc2s1)c1ccc2c(c1)CCCC2 59.3%
CS(=O)(=O)Nc1cccc(C2=NN(C(=O)C3CCCCC3)C(c3cccc(F)c3)C2)c1 (stereo not drawn) 130%
O=C(NNc1nc2c(F)cc(F)cc2s1)c1coc2ccccc2c1=O 81.7%
CCN(Cc1ccccc1)C(=O)CCN1C(=O)/C(=C\c2ccco2)SC1=S 45.7%
O=S1(=O)N=C(SCc2cccc(F)c2)Nc2ccc(Cl)cc21 129%
CC(=O)N1CCc2cc(NC(=O)CSc3nnc4ccccn34)ccc21 77.9%
CC(C)c1cc(C(=O)Nc2cccc(-c3nc4ccccc4o3)c2)nn1C1CCS(=O)(=O)C1 (stereo not drawn) 57.8%
NC(=O)c1ccsc1NC(=O)c1sc2ccccc2c1Cl 105%
CCOC(=O)Cc1ccc(NC(=O)Nc2ccc(Sc3c(CC)c(C)nc4ncnn34)cc2)cc1 51.8%
COc1cc(C(=O)Nc2cccc(C(=O)N3CCCCC3)c2)c2ccccc2n1 94.3%
Cn1c(=O)c2c(nc(NCc3cccnc3)n2CC(=O)c2ccccc2)n(C)c1=O 117%
Cc1ccc(-c2nnn3c2nc(NCc2ccc4c(c2)OCO4)c2ccccc23)cc1 83.1%
N#Cc1c(NC(=O)c2ccc(-c3nc4ccccc4s3)s2)sc2c1CCC2 102%
CCOC(=O)c1c(NC(=S)NC(=O)c2ccc(C(=O)OC)cc2)sc(OC(=O)CC)c1C 106%
CCC(=O)Nc1cccnc1-c1ccc(C(=O)Nc2ccc(OC)cc2OC)cc1 98.7%
Cc1oc2ncnc(N3CCC(C(=O)NCCc4ccccc4Cl)CC3)c2c1C 94.2%
O=C(OC1CCCCC1)c1cc2ccccc2oc1=O 131%
Cc1ccc(-c2c(C(F)(F)F)nn3c(NCCN(C)C)cc(C)nc23)cc1 119%
Cc1ccc(C(=O)CSc2nnc3[nH]c(=O)c(C)nn23)cc1C 110%
CC(Cn1cnc2ccccc21)C(=O)N/N=C1/C(=O)Nc2ccccc21 (stereo not drawn) 88%
CC(=O)c1csc(NC(=O)c2cc3ncc(C(C)=O)c(C)n3n2)n1 149%
CCOC(=O)c1nn(-c2ccc(Cl)c(Cl)c2)cc1O 99.3%
Nn1c(-c2ccncc2)nn2c(=O)c3ccccc3nc12 101%
CC(C)c1ccc2nc3sc(C(=O)N4CC(=O)Nc5ccccc54)c(N)c3cc2c1 74.5%
Cc1cc(C)cc(NC(=O)NCc2ccnc(N3CCCCC3)c2)c1 56.9%
Clc1cccc(/C=N/Nc2ncnc3[nH]cnc23)c1 112%
CC(=O)/N=c1\sccn1CC(=O)c1ccc([N+](=O)[O-])cc1 97.7%
O=C(Nc1cccc(Br)c1)c1cccc2nc3ccccc3nc12 124%
CCCCCCC1C(C#N)=C(N)OC2=C1C(=O)CC(C)(C)C2 (stereo not drawn) 89.7%
O=C(CCc1ccccc1)Nc1nc2c(s1)CSc1ccccc1-2 81.7%
O=C(COc1ccc(Cl)cc1Cl)NCC(=O)N/N=C/c1cccs1 94.3%
Cc1ccn2cc(CCNS(=O)(=O)c3ccc([N+](=O)[O-])cc3)nc2c1 89.4%
COc1ccc(CCNC(=O)CSc2ncnc3[nH]ncc23)cc1OC 92.2%
CCOC(=O)c1ccc(NC(=O)CSc2nccnc2N2CCN(c3ccccc3)CC2)cc1 77.3%
Cc1ccc(-c2nc3nc(C)cc(NCCO)n3n2)cc1 95.9%
Cc1ccc(C2=N/C(=C/c3ccc([N+](=O)[O-])cc3)C(=O)O2)cc1 101%
Cc1ccc(-c2nc(CN3CCC(C(=O)Nc4ncccc4O)CC3)no2)cc1 123%
Cc1ccc2c(c1)NC(=O)c1cc(NS(=O)(=O)c3ccc(C)c(Cl)c3)ccc1O2 110%
N#Cc1cc2cc3c(cc2nc1SCC(=O)Nc1ccc(F)c(Cl)c1)OCO3 110%
O=C(CCn1c(=S)oc2ccccc21)Nc1ccc(F)cc1 100%
O=C1c2oc3ccc(Cl)cc3c(=O)c2C(c2cccnc2)N1Cc1ccco1 (stereo not drawn) 90.2%
Cc1nnc(NC(=O)c2cc(Cl)ccc2Cl)s1 92.9%
COc1cc([N+](=O)[O-])cc2sc(NC(=O)c3ccc(N4C(=O)CCC4=O)cc3)nc12 97.3%
O=C(CSC1=NS(=O)(=O)c2ccccc2N1)N1CCCC1 136%
COC(=O)C1CCN(C(c2cccs2)c2sc3ncnn3c2O)CC1 (stereo not drawn) 82.5%
CCOc1ccc2nc(-n3nc(C)c4c3NC(=O)CC4c3ccc([N+](=O)[O-])s3)sc2c1 (stereo not drawn) 87.3%
CCn1c(=O)c2sccc2n2c(CCCC(=O)NCCc3ccc(S(N)(=O)=O)cc3)nnc12 86.8%
O=C(CSc1nc(=O)n2ccccc2n1)Nc1ccccc1C(F)(F)F 103%
O=C1/C(=C/c2ccc(F)cc2)Oc2c1ccc(O)c2CN1CCCC1 81.6%

Of the compounds above, these have two or more sulfur atoms.
Intracellular bacterial bioluminescence, inactive:
CCOc1ccc(NC(=O)CSC2=C(C#N)C(c3cccs3)C3=C(CC(C)(C)CC3=O)N2)cc1 (stereo not drawn) 18.6%
CCN(Cc1ccccc1)C(=O)CCN1C(=O)/C(=C\c2ccco2)SC1=S 45.7%
O=S1(=O)N=C(SCc2cccc(F)c2)Nc2ccc(Cl)cc21 129%
NC(=O)c1ccsc1NC(=O)c1sc2ccccc2c1Cl 105%
N#Cc1c(NC(=O)c2ccc(-c3nc4ccccc4s3)s2)sc2c1CCC2 102%
CCOC(=O)c1c(NC(=S)NC(=O)c2ccc(C(=O)OC)cc2)sc(OC(=O)CC)c1C 106%
O=C(CCc1ccccc1)Nc1nc2c(s1)CSc1ccccc1-2 81.7%
O=C(CSC1=NS(=O)(=O)c2ccccc2N1)N1CCCC1 136%
COC(=O)C1CCN(C(c2cccs2)c2sc3ncnn3c2O)CC1 (stereo not drawn) 82.5%
CCOc1ccc2nc(-n3nc(C)c4c3NC(=O)CC4c3ccc([N+](=O)[O-])s3)sc2c1 (stereo not drawn) 87.3%
CCn1c(=O)c2sccc2n2c(CCCC(=O)NCCc3ccc(S(N)(=O)=O)cc3)nnc12 86.8%
